From PMC3514159
No constants are given. Whether binding was seen depends on the method and setting. Binding seen in cells or lysates may run through a third protein. Some results given as binding are weak or reduced against the parent protein; the word gives no strength.

Sequences of proteins named here, by UniProt entry; tags and fusion partners are left off.
UniProt P09022: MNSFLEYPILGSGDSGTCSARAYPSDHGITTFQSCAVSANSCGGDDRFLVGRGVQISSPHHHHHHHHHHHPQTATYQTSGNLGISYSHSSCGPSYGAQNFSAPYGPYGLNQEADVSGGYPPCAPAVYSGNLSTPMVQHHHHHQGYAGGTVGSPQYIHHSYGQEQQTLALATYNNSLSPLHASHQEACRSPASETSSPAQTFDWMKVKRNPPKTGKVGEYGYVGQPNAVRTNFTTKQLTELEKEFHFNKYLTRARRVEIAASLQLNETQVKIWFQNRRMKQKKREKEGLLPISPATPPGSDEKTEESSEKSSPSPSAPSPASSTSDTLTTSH

Legend:
Experiment in all cases: pull-down; GST-hORF and FLAG-Hoxa1 co-expressed in COS7 or HEK293T; cleared lysate (Tris-HCl pH7.5 20mM, NaCl 120mM, EDTA 0.5mM, NP40 0.5%, glycerol 10%) overnight on glutathione-agarose beads, 3 washes; anti-FLAG western blot
[1] = molecular target: T1, MyoD family inhibitor (human) (UniProt Q99750)
T1 sequence: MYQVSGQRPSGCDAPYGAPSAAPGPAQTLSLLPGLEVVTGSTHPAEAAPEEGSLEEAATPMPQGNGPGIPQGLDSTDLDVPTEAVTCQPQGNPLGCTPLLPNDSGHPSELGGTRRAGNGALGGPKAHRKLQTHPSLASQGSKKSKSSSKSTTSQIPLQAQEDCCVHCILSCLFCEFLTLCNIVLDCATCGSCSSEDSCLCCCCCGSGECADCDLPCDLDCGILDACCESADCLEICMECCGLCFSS

[2] = molecular target: T2, phospholipid scramblase 4 (human) (UniProt Q9NRQ2)
T2 sequence: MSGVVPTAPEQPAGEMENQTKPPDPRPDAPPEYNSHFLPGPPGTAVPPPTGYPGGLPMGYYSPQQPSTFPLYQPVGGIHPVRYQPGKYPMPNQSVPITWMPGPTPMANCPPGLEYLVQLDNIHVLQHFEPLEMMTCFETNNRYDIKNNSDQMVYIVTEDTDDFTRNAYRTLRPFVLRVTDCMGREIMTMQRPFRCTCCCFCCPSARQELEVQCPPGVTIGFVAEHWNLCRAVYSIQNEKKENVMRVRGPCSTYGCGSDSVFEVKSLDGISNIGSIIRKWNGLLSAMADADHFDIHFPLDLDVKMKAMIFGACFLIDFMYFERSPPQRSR

[3] = molecular target: T3, keratin associated protein 26-1 (human) (UniProt Q6PEX3)
T3 sequence: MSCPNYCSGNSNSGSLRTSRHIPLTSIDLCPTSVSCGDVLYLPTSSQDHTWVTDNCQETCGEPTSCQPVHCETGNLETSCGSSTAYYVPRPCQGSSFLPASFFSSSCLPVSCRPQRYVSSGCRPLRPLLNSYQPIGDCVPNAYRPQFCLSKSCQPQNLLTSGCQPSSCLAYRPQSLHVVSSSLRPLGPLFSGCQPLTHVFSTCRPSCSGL

[4] = molecular target: T4, zinc finger, ZZ-type containing 3 (human) (UniProt Q8IYH5)
T4 sequence: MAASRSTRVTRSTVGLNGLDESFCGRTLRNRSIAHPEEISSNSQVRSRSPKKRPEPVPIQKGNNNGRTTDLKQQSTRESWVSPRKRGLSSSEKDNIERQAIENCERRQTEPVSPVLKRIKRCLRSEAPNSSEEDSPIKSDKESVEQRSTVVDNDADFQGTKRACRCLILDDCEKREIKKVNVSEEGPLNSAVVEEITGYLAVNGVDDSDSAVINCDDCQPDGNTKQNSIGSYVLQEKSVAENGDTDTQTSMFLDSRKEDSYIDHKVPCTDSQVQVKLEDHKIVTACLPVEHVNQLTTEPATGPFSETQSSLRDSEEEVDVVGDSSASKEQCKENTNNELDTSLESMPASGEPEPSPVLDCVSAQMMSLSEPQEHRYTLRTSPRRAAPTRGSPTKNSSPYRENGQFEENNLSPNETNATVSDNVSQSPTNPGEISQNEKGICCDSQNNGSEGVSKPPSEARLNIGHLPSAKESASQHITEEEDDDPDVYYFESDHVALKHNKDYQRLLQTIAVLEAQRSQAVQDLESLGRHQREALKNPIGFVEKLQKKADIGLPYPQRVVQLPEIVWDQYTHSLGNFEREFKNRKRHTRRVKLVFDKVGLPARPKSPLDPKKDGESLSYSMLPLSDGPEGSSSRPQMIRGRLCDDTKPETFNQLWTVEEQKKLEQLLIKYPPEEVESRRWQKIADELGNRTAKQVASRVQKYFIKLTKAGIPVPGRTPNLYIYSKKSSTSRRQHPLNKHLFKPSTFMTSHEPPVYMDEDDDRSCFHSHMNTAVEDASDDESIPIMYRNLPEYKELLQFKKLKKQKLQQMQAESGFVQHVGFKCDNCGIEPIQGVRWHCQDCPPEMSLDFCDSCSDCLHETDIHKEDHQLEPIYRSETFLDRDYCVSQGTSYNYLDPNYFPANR

[5] = molecular target: T5, ligand of numb-protein X 2 (human) (UniProt Q8N448)
T5 sequence: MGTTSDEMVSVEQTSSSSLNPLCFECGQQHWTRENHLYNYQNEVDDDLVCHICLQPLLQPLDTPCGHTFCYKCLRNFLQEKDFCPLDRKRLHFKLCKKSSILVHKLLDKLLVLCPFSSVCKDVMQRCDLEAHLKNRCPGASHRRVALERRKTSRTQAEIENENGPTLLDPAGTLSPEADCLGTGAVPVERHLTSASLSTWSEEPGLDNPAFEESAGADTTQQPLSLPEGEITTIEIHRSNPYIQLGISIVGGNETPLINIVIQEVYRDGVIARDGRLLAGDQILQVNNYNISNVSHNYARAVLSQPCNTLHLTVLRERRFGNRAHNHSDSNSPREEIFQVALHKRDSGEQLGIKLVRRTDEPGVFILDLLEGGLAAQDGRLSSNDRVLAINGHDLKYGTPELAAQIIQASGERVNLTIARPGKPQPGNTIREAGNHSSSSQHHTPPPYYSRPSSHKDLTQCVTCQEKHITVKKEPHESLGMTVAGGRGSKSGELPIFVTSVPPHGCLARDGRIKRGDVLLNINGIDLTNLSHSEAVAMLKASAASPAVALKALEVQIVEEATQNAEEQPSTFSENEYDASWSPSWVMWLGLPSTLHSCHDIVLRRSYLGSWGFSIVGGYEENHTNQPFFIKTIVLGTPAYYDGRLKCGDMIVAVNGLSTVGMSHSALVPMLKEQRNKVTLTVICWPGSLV

Measured: binding

FLAG-Hoxa1 (from UniProt P09022 1-331)
binds: all assays above
